Laboratory results: PubChem BioAssay AID1259254 (NCATS, 2017)
In all, the deposit lists about 59,000 reagents; this is a part drawn at random. About 1,550 of them (2.6%) count as active. 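G2 share is only a proxy for re-replication; each gene was hit by three separate siRNAs, and active genes were retested.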 The numbers tell different reagents against one gene apart. Further read-outs or replicates are left out here. The record does not give: the amount of reagent.

- Screen: 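Gene knock-downs that lead to re-replication, shown by excess G2 DNA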 (primary screen)
- System: human HCT116 colorectal cancer cells
- Reagent: single siRNA against human genes
- Timing: 3 days
- Measurement: 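Imaged Hoechst DNA stain sorts each cell into a cycle phase by DNA amount; per plate, G2 fraction set to 0% for non-targeting and 100% for GMNN siRNA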
- Direction: G2 robust z-score and G2 cells, % of GMNN control: higher = more G2 cells, more excess DNA replication
- Call rule: 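Active siRNAs have a G2 robust z of 5 or more median absolute deviations over the median, which in these data means about 38% or higher of GMNN control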

no.	target gene	reagent	G2 robust z-score	G2 cells, % of GMNN control	outcome
1	RIC8A	1	0.764	8.34	inactive
2	RIC8A	2	0.652	7.55	inactive
3	RIC8A	3	-0.879	-3.21	inactive
4	ZNF83	1	-0.555	-0.94	inactive
5	ZNF83	2	-0.894	-3.32	inactive
6	ZNF83	3	2.06	17.4	inactive
7	ZNF83	4	-0.0649	2.51	inactive
8	ZNF83	5	-0.0866	2.36	inactive
9	ZNF83	6	-0.338	0.588	inactive
10	HDAC1	1	-0.485	-0.444	inactive
11	HDAC1	2	5.84	44.1	active
12	HDAC1	3	1.94	16.6	inactive
13	KLHL32	1	1.98	16.9	inactive
14	KLHL32	2	-0.732	-2.18	inactive
15	KLHL32	3	0.297	5.06	inactive
16	SF1	1	0.555	6.87	inactive
17	SF1	2	2.33	19.4	inactive
18	SF1	3	1.3	12.1	inactive
19	NFS1	1	1.32	12.2	inactive
20	NFS1	2	-0.461	-0.279	inactive
21	NFS1	3	0.639	7.46	inactive
22	MBTPS1	1	-0.00161	2.96	inactive
23	MBTPS1	2	0.108	3.73	inactive
24	MBTPS1	3	-0.0758	2.43	inactive
25	HBZ	1	-0.946	-3.69	inactive
26	HBZ	2	-1.07	-4.59	inactive
27	HBZ	3	-0.462	-0.284	inactive
28	MUCL1	1	-0.775	-2.48	inactive
29	MUCL1	2	-0.151	1.91	inactive
30	MUCL1	3	-0.32	0.716	inactive
31	ESS2	1	-0.899	-3.36	inactive
32	ESS2	2	-0.139	1.99	inactive
33	ESS2	3	1.47	13.3	inactive
34	NUDT5	1	-0.29	0.93	inactive
35	NUDT5	2	0.615	7.3	inactive
36	NUDT5	3	0.652	7.56	inactive
37	SLC13A3	1	-0.724	-2.12	inactive
38	SLC13A3	2	0.332	5.3	inactive
39	SLC13A3	3	1.41	12.9	inactive
40	CITED1	1	1.29	12	inactive
41	CITED1	2	-0.596	-1.23	inactive
42	CITED1	3	1.92	16.5	inactive
43	CUL1	1	2.48	20.4	inactive
44	CUL1	2	8.18	60.5	active
45	CUL1	3	8.15	60.3	active
46	HTATSF1P2	1	-0.276	1.02	inactive
47	HTATSF1P2	2	-1.26	-5.9	inactive
48	HTATSF1P2	3	1.52	13.7	inactive
49	HUWE1	1	-0.819	-2.79	inactive
50	HUWE1	2	-1.55	-7.96	inactive
51	HUWE1	3	-0.249	1.22	inactive
52	TRIM9	1	0.186	4.28	inactive
53	TRIM9	2	-0.858	-3.07	inactive
54	TRIM9	3	-0.873	-3.17	inactive
55	CDCA5	1	5.6	42.4	active
56	CDCA5	2	11.3	82.2	active
57	CDCA5	3	1.78	15.5	inactive
58	TALDO1	1	-0.232	1.33	inactive
59	TALDO1	2	-0.452	-0.215	inactive
60	TALDO1	3	-0.692	-1.9	inactive
61	TMLHE	1	0.0505	3.32	inactive
62	TMLHE	2	0.0158	3.08	inactive
63	TMLHE	3	-0.491	-0.486	inactive
64	C1DP3	1	7.65	56.8	active
65	C1DP3	2	1.04	10.3	inactive
66	C1DP3	3	-0.488	-0.465	inactive
67	MFHAS1	1	-1.44	-7.18	inactive
68	MFHAS1	2	-0.631	-1.47	inactive
69	MFHAS1	3	-0.878	-3.21	inactive

Entries listed so far whose gene name begins with H or h (12):
target gene	reagent	G2 robust z-score	G2 cells, % of GMNN control	outcome
HDAC1	1	-0.485	-0.444	inactive
HDAC1	2	5.84	44.1	active
HDAC1	3	1.94	16.6	inactive
HBZ	1	-0.946	-3.69	inactive
HBZ	2	-1.07	-4.59	inactive
HBZ	3	-0.462	-0.284	inactive
HTATSF1P2	1	-0.276	1.02	inactive
HTATSF1P2	2	-1.26	-5.9	inactive
HTATSF1P2	3	1.52	13.7	inactive
HUWE1	1	-0.819	-2.79	inactive
HUWE1	2	-1.55	-7.96	inactive
HUWE1	3	-0.249	1.22	inactive
